Test system: MCF-7 cells
Assay: Immunofluorescence microscopy (phalloidin, anti-FAK, anti-vinculin)
Format: cell-based, human
Details: for height of cells in clusters: phalloidin-stained clusters, FIG. 4

Row | Molecule | height of cells in clusters | mature focal adhesions per cell (quiescent cells on fibronectin, anti-FAK or anti-vinculin)
1 | Ser179Ala: phosphodefective Ser179 to Ala mutant of human syndecan-4-GFP, expressed in MCF-7 cells (protein, UniProt P31431 19-198, looked up, variant S179A, GFP inserted at position 131, phosphodefective Ser179 to Ala mutant of human syndecan-4-GFP, expressed in MCF-7 cells) Syndecan-4: ESIRETEVIDPQDLLEGRYFSGALPDDEDVVGPGQESDDFELSGSGDLDDLEDSMIGPEVVHPLVPLDNHIPERAGSGSQVPTEPKKLEENEVIPKRISPVEESEDVSNKVSMSSTVQGSNIFERTEVLAALIVGGIVGILFAVFLILLLMYRMKKKDEGAYDLGKKPIYKKAPTNEFYA | 30 μm | 
2 | wt-syndecan-4: human syndecan-4 with GFP inserted at position 131, stably expressed in MCF-7 cells (protein, left off: large carriers, human syndecan-4 with GFP inserted at position 131, stably expressed in MCF-7 cells) ESIRETEVIDPQDLLEGRYFSGALPDDEDVVGPGQESDDFELSGSGDLDDLEDSMIGPEVVHPLVPLDNHIPERAGSGSQVPTEPKKLEENEVIPKRISPVEESEDVSNKVSMSSTVQGSNIFERTEVLAALIVGGIVGILFAVFLILLLMYRMKKKDEGSYDLGKKPIYKKAPTNEFYA | 20 μm | approximately 60 per cell

— patent publication US20110124572A1, “SYNDECAN-4 IS A REGULATOR OF RAC1-GTP” (priority 2008, published 2011)
